Measurements as given in patent US12564622B2, “Preventing cytokine release syndrome” (priority 2017, dated 2026).

Tested on: Raji-bearing NSGS mice with low tumour burden treated with hCART19
Assay: hCART19 treatment of Raji-bearing NSGS mice, low tumour burden
Type: in vivo, mouse (NSGS)
Description: Six to eight weeks old female NSG-SGM3 (NSGS) mice (NOD.Cg-Prkdcscid Il2rgtm1WjlTg (CMV-IL3, CSF2, KITLG) 1Eav/MloySzJ, Stock #013062) were purchased from the Jackson Laboratory. Raji cells were transfected with a luciferase construct via lentivirus to create Raji-luc cells. NSGS is a triple transgenic strain expressing human IL3, GM-CSF and SCF combine the features of the highly immunodeficient NOD scid gamma (NSG) mouse. One day before the injection of Raji cells, mice were irradiated at a dose of 2 Gy in a CIXD Xstahl device. In high tumor burden experiments in FIG. 5, 10^6 Raji-luc cells were injected IV via tail vein. Six days later, tumor loads were assessed using a Xenogen instrument and 15×10^6 hCART19 cells or untransduced T-cells were injected IV. In low tumor burden experiments in FIG. 6, 2×10^5 Raji-luc cells were injected IV via tail vein. Four days later, tumor loads were assessed using a Xenogen instrument and 15×10^6 hCART19 cells were injected IV. Metyrosine was injected IP at 60 mg/kg/day for three days before the hCART19 injection. On the day of CART19 injection, a fourth dose of 60 mg/kg was given IP and the mice were subsequently injected four more times at daily intervals at 30 mg/kg.

In the case of `CC[C@H](C)[C@@H]1NC(=O)[C@H](CCCNC(=N)N)NC(=O)[C@H](CC(=O)O)NC(=O)[C@H](CCSC)NC(=O)[C@H](CCCNC(=N)N)NC(=O)CNC(=O)CNC(=O)[C@H](Cc2ccccc2)NC(=O)[C@@H](NC(=O)[C@H](CO)NC(=O)[C@H](CO)NC(=O)[C@H](CCCNC(=N)N)NC(=O)[C@H](CCCNC(=N)N)NC(=O)[C@H](CC(C)C)NC(=O)[C@@H](N)CO)CSSC[C@@H](C(=O)N[C@@H](CC(N)=O)C(=O)N[C@@H](CO)C(=O)N[C@@H](Cc2ccccc2)C(=O)N[C@@H](CCCNC(=N)N)C(=O)N[C@@H](Cc2ccc(O)cc2)C(=O)O)NC(=O)CNC(=O)[C@H](CC(C)C)NC(=O)CNC(=O)[C@H](CO)NC(=O)[C@H](CCC(N)=O)NC(=O)[C@H](C)NC(=O)CNC1=O` [ANP, atrial natriuretic peptide], the “in vivo CART cell expansion or tumor clearance” value is reported as “Neither metyrosine nor ANP substantially interfered”.
